Earlier results as cited in US6710195B2, “Method for preparing and using polyoxyethylated castor oil in pharmaceutical compositions” (SuperGen, Inc., priority 2001, dated 2004).

CC(=O)O[C@H]1C(=O)[C@@]2(C)[C@H]([C@H](OC(=O)c3ccccc3)[C@]3(O)C[C@H](OC(=O)[C@H](O)[C@@H](NC(=O)c4ccccc4)c4ccccc4)C(C)=C1C3(C)C)[C@]1(OC(C)=O)CO[C@@H]1C[C@@H]2O [paclitaxel]
solubility in water: less than 0.01 mg/mL
